Measured data: PubChem BioAssay AID1508588 (Peter MacCallum Cancer Centre, 2020)
Aim: 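Genome-wide search for knock-downs that heighten vemurafenib action in melanoma cells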 (primary screen). Cell system: human WM266.4 melanoma cells (BRAF V600 mutant). Reagent: siRNA pool against human genes, 40 nM. Time to read-out: 96 h from transfection to read-out. Challenge: vemurafenib 300 nM (about IC25), added 48 h after transfection, for 48 h; comparison arm got DMSO vehicle only. Measurement: 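Ratios to non-targeting siRNA for cell gain, counted as DAPI nuclei after minus before drug and averaged over two replicates, and for absorbance-read medium lactate per cell; both binned into fold-change classes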. Reading the numbers: cell gain with vemurafenib: higher = more cell gain than with non-targeting siRNA; lactate per cell with vemurafenib: higher = more lactate made per cell. Active means: 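Enhancement is called by pairing each knock-down's vehicle-arm and drug-arm fold-change classes for viability or glycolysis; which class combinations qualify is not given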. Meaning of the calls: active = enhances vemurafenib effect; inactive = no enhancement seen.
In all, the deposit lists about 18,000 reagents; this is an unselected part. 790 of them (4.4%) count as active. 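Calls rest on a combination of fold-change classes in drug and vehicle arms, not all shown here.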

{"gene":"MS4A14 (GeneID 84689)","cell gain with vemurafenib":-0.08,"lactate per cell with vemurafenib":0.95,"Call":"inactive"}
{"gene":"CCDC120 (GeneID 90060)","cell gain with vemurafenib":0.53,"lactate per cell with vemurafenib":1.4,"Call":"inactive"}
{"gene":"MFAP1 (GeneID 4236)","cell gain with vemurafenib":0.22,"lactate per cell with vemurafenib":1.58,"Call":"inactive"}
{"gene":"ASGR2 (GeneID 433)","cell gain with vemurafenib":0.69,"lactate per cell with vemurafenib":0.4,"Call":"active"}
{"gene":"CCT5 (GeneID 22948)","cell gain with vemurafenib":0.29,"lactate per cell with vemurafenib":1.69,"Call":"inactive"}
{"gene":"REXO4 (GeneID 57109)","cell gain with vemurafenib":0.64,"lactate per cell with vemurafenib":0.26,"Call":"inactive"}
{"gene":"CALY (GeneID 50632)","cell gain with vemurafenib":0.83,"lactate per cell with vemurafenib":1.04,"Call":"inactive"}
{"gene":"C5orf46 (GeneID 389336)","cell gain with vemurafenib":0.41,"lactate per cell with vemurafenib":1.04,"Call":"inactive"}
{"gene":"FLOT1 (GeneID 10211)","cell gain with vemurafenib":0.28,"lactate per cell with vemurafenib":2.37,"Call":"inactive"}
{"gene":"PDGFA (GeneID 5154)","cell gain with vemurafenib":0.99,"lactate per cell with vemurafenib":1.06,"Call":"inactive"}
{"gene":"TUBGCP4 (GeneID 27229)","cell gain with vemurafenib":0.52,"lactate per cell with vemurafenib":0.84,"Call":"inactive"}
{"gene":"EHD2 (GeneID 30846)","cell gain with vemurafenib":1.32,"lactate per cell with vemurafenib":0.68,"Call":"inactive"}
{"gene":"ZNF3 (GeneID 7551)","cell gain with vemurafenib":0.33,"lactate per cell with vemurafenib":0.55,"Call":"inactive"}
{"gene":"TSPOAP1 (GeneID 9256)","cell gain with vemurafenib":0.82,"lactate per cell with vemurafenib":1.02,"Call":"inactive"}
{"gene":"KIAA1328 (GeneID 57536)","cell gain with vemurafenib":0.97,"lactate per cell with vemurafenib":0.88,"Call":"inactive"}
{"gene":"PLPBP (GeneID 11212)","cell gain with vemurafenib":0.62,"lactate per cell with vemurafenib":1.74,"Call":"inactive"}

2 of these entries, reformatted:
| gene | cell gain with vemurafenib | lactate per cell with vemurafenib | Call |
| --- | --- | --- | --- |
| TSPOAP1 (GeneID 9256) | 0.82 | 1.02 | inactive |
| KIAA1328 (GeneID 57536) | 0.97 | 0.88 | inactive |
